The reference is the same well before dosing, and untreated signal decays as well.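 The tumor cells are basal-like or mesenchymal-like triple-negative breast cancer lines cultured without fibroblasts. Reduced red signal indicates lost mitochondrial integrity, serving as a proxy for apoptotic death.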
Tests used:
Experiment in all cases: relative JC-1 red fluorescence (viability) vs pre-drug, monoculture (fraction); higher = more viable cancer cells
Conditions in all cases: coculture fibroblast: none (monoculture)
[1] = system: HCC1143
Description: (§1)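 JC-1 labelled TNBC cells grown in monoculture (density kept equal with unlabelled cancer cells) in 384-well plates in FluoroBrite medium, treated with one of 42 anticancer drugs at 0.1, 1, 10 or 100 uM. JC-1 red fluorescence (mitochondrial integrity, surrogate of apoptotic death) was read by plate reader every 8 h for 72 h. Values are normalised to each well's pre-drug value, with background from alamethicin. The stock of one drug was tenfold lower, so its dose labels may be too high. Monoculture values are repeated alongside each fibroblast plate and are averaged here.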

[2] = system: BT20
Description: as §1

[3] = system: MDAMB468
Description: as §1

[4] = system: Hs578T
Description: as §1

CCCCCOC(=O)Nc1nc(=O)n([C@@H]2O[C@H](C)[C@@H](O)[C@H]2O)cc1F [Capecitabine]
relative JC-1 red fluorescence
Conditions | 8 h | 16 h | 24 h | 32 h | 40 h | 48 h | 56 h | 64 h | 72 h
[1], 0.1 µM | 0.892 | 0.758 | 0.66729 | 0.601 | 0.538 | 0.49 | 0.449 | 0.43 | 0.409
[1], 1 µM | 0.8741 | 0.802 | 0.733 | 0.669 | 0.626 | 0.581 | 0.56 | 0.536 | 0.522
[1], 10 µM | 0.912 | 0.822 | 0.746 | 0.682 | 0.626 | 0.578 | 0.544 | 0.515 | 0.489
[1], 100 µM | 0.948 | 0.768 | 0.839 | 0.837 | 0.805 | 0.767 | 0.741 | 0.717 | 0.685
[2], 0.1 µM | 0.9298 | 0.854 | 0.757 | 0.677 | 0.628 | 0.587 | 0.545 | 0.516 | 0.497
[2], 1 µM | 0.979 | 0.9352 | 0.878 | 0.803 | 0.763 | 0.745 | 0.716 | 0.712 | 0.71521
[2], 10 µM | 0.947 | 0.8826 | 0.759 | 0.689 | 0.634 | 0.593 | 0.552 | 0.521 | 0.5
[2], 100 µM | 0.9383 | 0.887 | 0.821 | 0.763 | 0.722 | 0.711 | 0.68 | 0.66 | 0.646
[3], 0.1 µM | 0.901 | 0.83 | 0.76 | 0.6835 | 0.641 | 0.6324 | 0.603 | 0.582 | 0.574
[3], 1 µM | 0.917 | 0.8791 | 0.8356 | 0.7386 | 0.7 | 0.693 | 0.676 | 0.66 | 0.653
[3], 10 µM | 0.9139 | 0.8709 | 0.788 | 0.7263 | 0.6882 | 0.6786 | 0.653 | 0.631 | 0.621
[3], 100 µM | 0.9243 | 0.857 | 0.792 | 0.748 | 0.706 | 0.662 | 0.636 | 0.61 | 0.594
[4], 0.1 µM | 0.824 | 0.7223 | 0.649 | 0.576 | 0.529 | 0.498 | 0.474 | 0.467 | 0.452
[4], 1 µM | 0.8525 | 0.7501 | 0.6367 | 0.5626 | 0.507 | 0.477 | 0.448 | 0.441 | 0.434
[4], 10 µM | 0.828 | 0.731 | 0.647 | 0.579 | 0.527 | 0.494 | 0.464 | 0.453 | 0.432
[4], 100 µM | 0.866 | 0.787 | 0.753 | 0.691 | 0.663 | 0.65 | 0.64 | 0.649 | 0.636

N.N.[Cl][Pt][Cl] [Cisplatin]
relative JC-1 red fluorescence
Conditions | 8 h | 16 h | 24 h | 32 h | 40 h | 48 h | 56 h | 64 h | 72 h
[1], 0.1 µM | 0.861 | 0.769 | 0.708 | 0.648 | 0.606 | 0.578 | 0.562 | 0.544 | 0.531
[1], 1 µM | 0.854 | 0.759 | 0.6969 | 0.6483 | 0.6048 | 0.578 | 0.559 | 0.547 | 0.533
[1], 10 µM | 0.862 | 0.775 | 0.717 | 0.664 | 0.629 | 0.593 | 0.57 | 0.561 | 0.554
[1], 100 µM | 0.746 | 0.57 | 0.4919 | 0.4189 | 0.383 | 0.359 | 0.344 | 0.329 | 0.323
[2], 0.1 µM | 0.9148 | 0.8307 | 0.763 | 0.697 | 0.653 | 0.636 | 0.608 | 0.607 | 0.598
[2], 1 µM | 0.886 | 0.797 | 0.745 | 0.683 | 0.652 | 0.634 | 0.605 | 0.591 | 0.581
[2], 10 µM | 0.893 | 0.815 | 0.6916 | 0.549 | 0.504 | 0.488 | 0.478 | 0.477 | 0.474
[2], 100 µM | 0.868 | 0.475 | 0.376 | 0.3 | 0.276 | 0.266 | 0.248 | 0.245 | 0.243
[3], 0.1 µM | 0.89 | 0.7705 | 0.744 | 0.704 | 0.674 | 0.677 | 0.648 | 0.644 | 0.643
[3], 1 µM | 0.851 | 0.742 | 0.721 | 0.662 | 0.643 | 0.643 | 0.624 | 0.623 | 0.621
[3], 10 µM | 0.793 | 0.625 | 0.571 | 0.51 | 0.474 | 0.478 | 0.459 | 0.45 | 0.457
[3], 100 µM | 0.748 | 0.575 | 0.527 | 0.461 | 0.418 | 0.421 | 0.401 | 0.393 | 0.39
[4], 0.1 µM | 0.8576 | 0.722 | 0.7017 | 0.6415 | 0.606 | 0.591 | 0.563 | 0.569 | 0.563
[4], 1 µM | 0.75 | 0.665 | 0.663 | 0.593 | 0.546 | 0.541 | 0.524 | 0.533 | 0.534
[4], 10 µM | 0.818 | 0.672 | 0.616 | 0.517 | 0.477 | 0.459 | 0.441 | 0.451 | 0.449
[4], 100 µM | 0.652 | 0.455 | 0.4896 | 0.4 | 0.358 | 0.352 | 0.339 | 0.342 | 0.339
